The nature of the experiment: qHTS Assay for Lipid Storage Modulators in Drosophila S3 Cells.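 On cell number change: cells counted by Cell Tracker Red CMTPX staining in the red channel.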 The settings on record: BODIPY lipid droplet fluorescence, 18-24 h; for cell number change: measured here: cell count max response, cells fed with added oleic acid. The method in brief: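 Drosophila S3 cells got compounds at several concentrations plus oleic acid (400 uM solution). Laser-scanning cytometry with 488 nm excitation read lipid droplets at 500-530 nm and cells at 575-640 nm. Percent activity was relative to 20 uM Triacsin C.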

[1] abbreviates: measured here: cell number channel AC50, cells fed with added oleic acid.
Where [2] appears, read: measured here: lipid fluorescence (Fed channel) AC50, cells fed with added oleic acid.

This note sets out measurements from PubChem BioAssay AID2685 (National Center for Advancing Translational Sciences (NCATS), 2010).

Molecules are shown by their SMILES. The list shows a part of the results. The main result of the screen is listed elsewhere. These columns were measured beside it and carry no call. Compounds called inactive in the main read-out are mostly missing here. The note in brackets gives the kind of curve behind each potency; many fits are weak.

A word on the AC50: it is the midpoint of the concentration-response curve, whichever way the signal moves. Regarding `CC(=O)c1cc(F)c(N2CCCCCC2)cc1C`, the cell number change was -39.7%. In addition, the AC50 under setting [1] was 29.1 µM [falling, single point]. The AC50 under setting [2] is 29.1 µM [falling, single point]. Consider `Cc1cccc(NS(=O)(=O)c2ccc(C(=O)NCCCN3CCOCC3)cc2)c1C`, for which the cell number change is -16.4%.

In the case of `Cc1n[nH]c(C)c1S(=O)(=O)N(CC(=O)N1CCc2ccccc21)c1ccc(C(C)C)cc1`, the cell number change stood at 16.5%. In the case of `Cc1ccc(S(=O)(=O)NC(=NCC(=O)O)c2ccc(F)cc2)cc1`, the AC50 under setting [2] is 18.4 µM [falling, single point].

On to `Cc1cc(-c2ccc(Cl)cc2)c2cnn(C(C)C)c2n1`, for which the cell number change is -38.7%. For the same compound, the AC50 under setting [1] is 32.6 µM [falling, single point].

As for `COc1ccc(/C=C2\SC(=O)N(CC(=O)NCCCn3ccnc3)C2=O)cc1`, the cell number change stood at 18.7%. In addition, the AC50 under setting [1] was 3.66 µM [rising, partial curve]. Further, the concentration at half-maximal activity (AC50) under setting [2] is 1.84 µM [rising, partial curve, poor fit]. Take `O=C(C1COc2ccccc2O1)N1CCN(c2ccc(F)cc2)CC1` (stereo not drawn): the cell number change was -4.7%. In the case of `CCN(CCCNC(=O)CCc1nc(-c2ccc(OC)cc2)no1)c1cccc(C)c1`, the cell number change came out at 18.2%. In addition, the AC50 under setting [2] was 0.103 µM [falling, full curve, poor fit]. For the compound `Cn1c(=O)c(Oc2cc(Cl)cc(Cl)c2)nc2ccccc21`, the AC50 under setting [1] is 1.46 µM [rising, partial curve]. Turning to `COC(C(=O)NCc1ccccc1C)c1ccccc1` (stereo not drawn), the cell number change was 94.1%. In addition, the concentration at half-maximal activity (AC50) under setting [1] was 29.1 µM [rising, single point]. For the same compound, the concentration at half-maximal activity (AC50) under setting [2] is 6.51 µM [falling, partial curve]. For the compound `COc1cccc(CC(NC(C)=O)C(=O)NC2CCN(C(=O)c3ccc(Cl)cc3)CC2)c1` (stereo not drawn), under setting [2], the half-maximal activity concentration (AC50) is 29.1 µM [falling, single point]. Consider `CC(=O)NCc1ccc(C(=O)O)cc1`, for which the cell number change was -10.9%. The AC50 under setting [2] was 0.00517 µM [falling, full curve, poor fit]. For the compound `Cc1ccc(CNc2nc(-c3cccnc3)nc3ccccc23)cc1`, the cell number change is -32.5%. In addition, the AC50 under setting [1] was 0.146 µM [falling, full curve, poor fit]. Moreover, the AC50 under setting [2] was 0.116 µM [falling, full curve, poor fit]. For the compound `CN(C)CCCN(C(=O)c1ccc(N2C(=O)CCC2=O)cc1)c1nc2c(F)cccc2s1`, the cell number change is -38.8%. For the same compound, the AC50 under setting [2] is 29.1 µM [falling, single point].

Consider `COc1ccc(C2=NN(c3ccc(C(=O)O)cc3)C(c3ccc(OC)c(OC)c3)C2)cc1` (stereo not drawn), for which the cell number change was -12.8%. For the same compound, under setting [2], the concentration at half-maximal activity (AC50) is 3.66 µM [falling, partial curve, poor fit]. For the compound `COc1ccc(N2CCN(C(=O)c3ccc(-c4nc5ccccc5s4)o3)CC2)cc1`, the cell number change was 6.25%. Also, the AC50 under setting [2] is 5.8 µM [rising, full curve]. Regarding `CCOC(=O)C1=C(C)NC(=O)NC1c1ccc(Cl)cc1Cl` (stereo not drawn), under setting [2], the AC50 was 0.82 µM [falling, full curve]. Take `CC(C)N1C(=O)S/C(=C/c2ccc(Sc3nc4ccccc4[nH]3)o2)C1=O`: the cell number change was -23.2%. Under setting [2], the AC50 was 29.1 µM [falling, single point]. In the case of `O=C(c1cccs1)N1CC=C(c2ccccc2)CC1`, the cell number change came out at 11%. The AC50 under setting [2] is 4.61 µM [rising, single point].

For the compound `O=S(=O)(Cc1ccccc1)c1ccccc1-c1nnc(-c2ccccc2)o1`, the AC50 under setting [2] is 4.11 µM [falling, single point].

Regarding `CCOCCCNC(=O)C(NC(=O)c1ccc(=O)[nH]c1)c1ccc(C)cc1` (stereo not drawn), the cell number change is -48.8%. Besides, under setting [1], the concentration at half-maximal activity (AC50) is 1.16 µM [falling, full curve]. Besides, the AC50 under setting [2] was 0.651 µM [falling, partial curve, poor fit]. On to `O=C(COC(=O)Cc1ccsc1)Nc1ccc(F)cc1Cl`, for which the cell number change was -2.71%. Also, under setting [2], the half-maximal activity concentration (AC50) is 0.291 µM [rising, partial curve, poor fit]. `COc1cc(/C=C/C(=O)O)cc(S(=O)(=O)N(CC(C)C)CC(C)C)c1OC`: the cell number change was 6.49%. The AC50 under setting [2] is 0.58 µM [falling, single point]. `CCOC(=O)c1ccc(COC(=O)CNC(=O)CNC(=O)c2ccc(OC)cc2)o1`: the cell number change was -141%. Besides, the AC50 under setting [1] was 16.4 µM [falling, partial curve]. Further, under setting [2], the AC50 is 16.4 µM [falling, partial curve]. On to `O=C(COC(=O)c1n[nH]c2ccccc12)Nc1ccc([N+](=O)[O-])cc1`, for which the cell number change is 42.2%. For the same compound, the AC50 under setting [1] is 11.6 µM [rising, partial curve]. Besides, under setting [2], the half-maximal activity concentration (AC50) was 10.3 µM [rising, partial curve].

For `CS(=O)(=O)N1Cc2ccccc2CC1C(=O)OCC(=O)Nc1ccc2ccccc2c1` (stereo not drawn), the cell number change stood at 40.3%. Under setting [1], the AC50 is 1.84 µM [rising, full curve, poor fit]. The half-maximal activity concentration (AC50) under setting [2] is 0.461 µM [rising, full curve, poor fit]. Consider `Cc1ccc(CC(=O)Nc2cc(C)ccn2)cc1`, for which the cell number change is -25.8%. For the same compound, the AC50 under setting [2] was 8.2 µM [rising, partial curve]. With `O=C(c1ccc(Cl)cc1)C1C2C(=O)N(c3ccccc3)C(=O)C2C2CCCN21` (stereo not drawn), the cell number change was found to be 94.3%. The AC50 under setting [1] was 6.51 µM [rising, partial curve].

With `CCCC1C2C(=O)N(c3ccccc3OC)C(=O)C2ON1c1ccccc1` (stereo not drawn), the cell number change is 5.33%.

In the case of `O=C(COc1coc(CN2CCc3ccccc32)cc1=O)Nc1cccc(F)c1`, the cell number change came to 3.37%. With `O=[N+]([O-])c1cc(C(F)(F)F)ccc1NCCOc1ccccc1`, the cell number change was 13.8%. Also, the half-maximal activity concentration (AC50) under setting [2] is 20.6 µM [rising, single point]. With `N#Cc1nc(-c2cccs2)oc1NCc1ccccc1`, the cell number change is 17.2%. For the same compound, the concentration at half-maximal activity (AC50) under setting [2] was 29.1 µM [rising, single point]. Regarding `COc1cccc(CNC(=O)Cc2ccc(-n3c(=O)[nH]c4ccccc4c3=O)cc2)c1`, the cell number change was 16.5%. On the same count and under the same terms, the result for `N#Cc1ccc(C(=O)NCC2CCCCC2)cc1` reads -22.2%.

With `Cc1cccc(N(C(=O)Cn2nnc3ccccc32)C(C(=O)NC(C)(C)C)c2ccsc2)c1` (stereo not drawn), the AC50 under setting [2] is 0.58 µM [falling, single point].

`CCc1ccccc1NC(=O)CNC(=O)c1cccc(S(=O)(=O)N2CCN(Cc3ccccc3)CC2)c1`: the half-maximal activity concentration (AC50) under setting [1] was 1.03 µM [rising, partial curve].

Consider `C=CC[N+](C)(C)C/C(Cl)=C(\Cl)c1ccccc1`, for which the cell number change is -21.5%. The concentration at half-maximal activity (AC50) under setting [2] is 20.6 µM [falling, partial curve]. Regarding `COc1ccc(C)cc1-n1nnnc1SCc1cc(=O)n2cc(C)ccc2n1`, the AC50 reads like this: under setting [1], 2.91 µM [falling, partial curve, poor fit]; under setting [2], 2.91 µM [falling, full curve, poor fit]. `CC1CC1C(=O)OCC(=O)NC(=O)NCc1ccco1` (stereo not drawn): the cell number change was -30.6%. For the same compound, the concentration at half-maximal activity (AC50) under setting [1] was 32.6 µM [falling, single point]. For the compound `CN(C)c1ccc(/C=C(\C#N)C(=O)NCc2ccco2)cc1`, the cell number change was determined as 22.1%. In addition, the AC50 under setting [2] is 2.31 µM [falling, partial curve, poor fit].

As for `CCOC(=O)C1CCN(C(=O)C2(NC(=O)Nc3ccccc3Cl)CCCCC2)CC1`, the cell number change was -87.2%. Also, the half-maximal activity concentration (AC50) under setting [1] is 1.46 µM [falling, full curve]. The concentration at half-maximal activity (AC50) under setting [2] is 1.84 µM [falling, full curve]. `O=C1CC(Nc2ccccc2)C(=O)N1CCc1ccccc1` (stereo not drawn): the AC50 is, setting by setting: under setting [1], 1.3 µM [rising, partial curve]; under setting [2], 4.61 µM [rising, single point].

In the case of `COc1ccc(/C=C/C=C2\NC(=S)NC2=O)cc1`, the cell number change was determined as 13%. Regarding `CC(C)n1c(SCC(=O)N2CCCC2)nc2c1c(=O)n(C)c(=O)n2C`, the cell number change was found to be 14.2%. Moreover, under setting [2], the half-maximal activity concentration (AC50) is 13 µM [rising, single point].

On to `Cc1cc(C(=O)OCC(=O)N2CCc3ccccc32)c(C)o1`, for which the cell number change stood at 18.9%.

In the case of `COc1cc(CN2CCN(C(=O)CC(C)C)CC2)cc(OC)c1O`, the cell number change amounted to 8.61%. For `CCC(CC)COC(=O)C(C#N)c1nc2ccccc2nc1N1CCN(CC)CC1` (stereo not drawn), the cell number change was -32.7%. In addition, the concentration at half-maximal activity (AC50) under setting [1] is 0.651 µM [rising, full curve]. Moreover, under setting [2], the AC50 was 0.731 µM [rising, full curve]. As for `Cc1ccccc1OCc1nc(-c2ccc(NC(=O)c3ccc4c(c3)OCO4)cc2)no1`, the cell number change was -66%. Further, the AC50 under setting [1] was 6.51 µM [falling, partial curve]. Besides, the AC50 under setting [2] is 6.51 µM [falling, full curve]. With `COc1ccc(C)cc1NC(=O)NNC(=O)c1ccoc1C`, the cell number change amounted to 48.6%. In addition, the AC50 under setting [1] is 9.2 µM [rising, partial curve, poor fit]. Under setting [2], the AC50 was 18.4 µM [rising, partial curve, poor fit]. `COCCCNCCCCOc1ccc(C)cc1[N+](=O)[O-]`: the cell number change came to 2.1%. The concentration at half-maximal activity (AC50) under setting [2] was 16.4 µM [falling, single point]. Consider `Cc1ccc(S(=O)(=O)N(C)c2ccccc2C(=O)NC2CCCC2)cc1`, for which the cell number change was -34.1%. For the same compound, under setting [1], the half-maximal activity concentration (AC50) was 16.4 µM [falling, single point]. Also, under setting [2], the AC50 is 29.1 µM [falling, single point]. For `Cc1ccc(Cl)cc1S(=O)(=O)N1CCC(C(=O)NC2CCN(Cc3ccccc3)CC2)CC1`, the cell number change turned out to be 11.7%.

Consider `O=C(NC1CC1)c1cc(Cl)nc2ccccc12`, for which the cell number change was -16.8%. The concentration at half-maximal activity (AC50) under setting [2] was 3.66 µM [falling, single point].

On to `CCOC(=O)[C@H]1[C@H]2COc3cc(OC)ccc3[C@@H]2N2C(=O)CN(Cc3ccc(C)cc3)C(=O)[C@@]12C`, for which the cell number change was -9.15%. In addition, the half-maximal activity concentration (AC50) under setting [2] was 0.116 µM [falling, single point]. `Cc1csc2nc(O)c(C(=O)NC3CCCCC3C)c(=O)n12` (stereo not drawn): the cell number change is -18.5%. Further, under setting [1], the AC50 was 3.66 µM [falling, partial curve]. As to `O=Cc1ccccc1Oc1ccccc1`, the cell number change was -15%. Moreover, the AC50 under setting [1] was 2.06 µM [falling, partial curve]. Besides, the concentration at half-maximal activity (AC50) under setting [2] was 18.4 µM [falling, partial curve].

Consider `COc1ccc(N2C(=O)CSC2c2cccc(F)c2)c(OC)c1` (stereo not drawn), for which the cell number change was -3.12%.

For `COc1ccc(CCNS(=O)(=O)c2cccc(S(=O)(=O)N3CCCC3)c2)cc1OC`, the cell number change was -8.76%. For the same compound, the AC50 under setting [2] was 0.00461 µM [rising, full curve, poor fit]. `COc1cccc(OC)c1OCC(O)CN1CCN(c2ccccc2)CC1` (stereo not drawn): the cell number change is 29.6%. Also, the half-maximal activity concentration (AC50) under setting [2] was 29.1 µM [rising, single point].
